Experimental data from PubChem BioAssay AID256 (DTP/NCI, 2004).
The list does not hold the whole screen: it is rich in T/C values a quarter to a half above the control, in often repeated tests (any T/C) and in doses without a T/C. Further doses and runs are listed elsewhere. T/C is the treated group as % of the vehicle group. Some doses have a count of surviving animals in place of a T/C: the source holds a T/C of zero for them, seemingly a mark for toxic or unscored doses. Some survivor counts are full or nearly so, which does not show that the dose was tolerated: the source hardly ever lists a survival T/C far under the control, and the zero likely stands for such cases as well. Survivors were counted at the toxicity check, usually on the fifth day, unless a day is given; later deaths do not show. Schedule codes are those of the source, read here as Q, the interval in days (D) or hours (H), X, the number of doses. For survival time, this PubChem deposit counts one and a half times the control or more as active, and values a quarter to a half above the control carry no call in these data; other NCI protocols may use other cut-offs.

System: CD2F1 mice, L1210 leukemia ip, survival T/C
Assay: NCI In Vivo Anticancer Drug Screen. Data for tumor model L1210 Leukemia (intraperitoneal) in CD2F1 (CDF1) mice
Conditions: higher T/C = longer survival
In short: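 Each value reflects a quotient of treated over vehicle control outcomes in mice with a transplanted tumor.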

[1] = T/C endpoint: mean survival time, dose: 400.0 mg/kg/injection, schedule: Q01DX009 (ip), vehicle: saline with Tween-80
[2] = T/C endpoint: mean survival time, dose: 400.0 mg/kg/injection, schedule: Q04DX003 (ip), vehicle: saline with Tween-80
[3] = T/C endpoint: mean survival time, dose: 400.0 mg/kg/injection, schedule: Q04DX002 (ip), vehicle: saline with Tween-80
[4] = T/C endpoint: mean survival time, dose: 100.0 mg/kg/injection, schedule: Q04DX003 (ip), vehicle: saline with Tween-80
[5] = T/C endpoint: mean survival time, dose: 200.0 mg/kg/injection, schedule: Q04DX003 (ip), vehicle: saline with Tween-80
[6] = T/C endpoint: mean survival time, dose: 200.0 mg/kg/injection, schedule: Q01DX009 (ip), vehicle: saline with Tween-80

## c1ccc([As]2[As](c3ccccc3)[As](c3ccccc3)[As]2c2ccccc2)cc1 (centres undefined)
T/C endpoint: mean survival time, dose: 75.0 mg/kg/injection, schedule: Q01DX001 (ip), vehicle: saline
  survivor count: 3 of 6
T/C endpoint: mean survival time, dose: 150.0 mg/kg/injection, schedule: Q01DX001 (ip), vehicle: saline
  survivor count: 2 of 6
T/C endpoint: mean survival time, dose: 300.0 mg/kg/injection, schedule: Q01DX001 (ip), vehicle: saline
  survivor count: 0 of 6

## O=C(Nc1cccc2ccccc12)OC1CCCCC1Br (centres undefined)
T/C endpoint: mean survival time, dose: 25.0 mg/kg/injection, schedule: Q01DX001 (ip), vehicle: saline with Tween-80
  survivor count: 3 of 3

## CCOC(=O)Nc1cc2c(c(N)n1)N=C(c1ccc(Cl)cc1)CN2
T/C endpoint: mean survival time, dose: 12.5 mg/kg/injection, schedule: Q01DX009 (ip), vehicle: Klucel (hydroxypropylcellulose) (HPC)
  T/C: 125 % of control
T/C endpoint: mean survival time, dose: 50.0 mg/kg/injection, schedule: Q01DX009 (ip), vehicle: Klucel (hydroxypropylcellulose) (HPC)
  survivor count: 4 of 5

## NC(=S)Nc1ccc([N+](=O)[O-])cc1
T/C endpoint: mean survival time, dose: 200.0 mg/kg/injection, schedule: Q04DX003 (ip), vehicle: other
  survivor count: 3 of 6
T/C endpoint: mean survival time, dose: 400.0 mg/kg/injection, schedule: Q04DX003 (ip), vehicle: other
  survivor count: 0 of 6

## O=C(O)c1cccc([N+](=O)[O-])c1C(=O)c1ccccc1
[1]
  survivor count: 0 of 6

## [N-]=[N+]=Nc1ccccc1C(=O)NCc1cnc(N)nc1N
[2]
  survivor count: 6 of 6

## CCN(C(=O)Nc1ccc(OC)cc1)c1ccccc1
[2]
  survivor count: 3 of 6

## NC(CCC(=O)c1ccccn1)C(=O)O (centres undefined)
T/C endpoint: mean survival time, dose: 400.0 mg/kg/injection, schedule: Q04DX003 (ip), vehicle: saline
  survivor count: 0 of 6

## CCOC(=O)Nc1cc(N(C)C)c(N)c(N)n1
T/C endpoint: mean survival time, dose: 400.0 mg/kg/injection, schedule: Q01DX001 (ip), vehicle: carboxymethylcellulose (CMC)
  survivor count: 3 of 6

## COc1ccc(/C(C)=N\NC(=O)c2ccccc2)cc1
[2]
  survivor count: 5 of 6

## Nc1[nH]c(=S)[nH]c(=O)c1N
T/C endpoint: mean survival time, dose: 100.0 mg/kg/injection, schedule: Q04DX002 (ip), vehicle: saline with Tween-80
  survivor count: 1 of 3
T/C endpoint: mean survival time, dose: 200.0 mg/kg/injection, schedule: Q04DX002 (ip), vehicle: saline with Tween-80
  survivor count: 0 of 3
[3]
  survivor count: 0 of 3

## CCC([NH-])(CC)C[NH-].[Cl][Pt+2][Cl]
T/C endpoint: mean survival time, dose: 6.25 mg/kg/injection, schedule: Q04DX003 (ip), vehicle: saline with Tween-80
  T/C: 127 % of control
T/C endpoint: mean survival time, dose: 12.5 mg/kg/injection, schedule: Q04DX003 (ip), vehicle: saline with Tween-80
  T/C: 135 % of control
T/C endpoint: mean survival time, dose: 12.5 mg/kg/injection, schedule: Q04DX003 (ip), vehicle: saline
  T/C: 146 % of control
T/C endpoint: mean survival time, dose: 25.0 mg/kg/injection, schedule: Q04DX003 (ip), vehicle: saline
  survivor count: 5 of 6
T/C endpoint: mean survival time, dose: 50.0 mg/kg/injection, schedule: Q04DX003 (ip), vehicle: saline
  survivor count: 5 of 6
T/C endpoint: mean survival time, dose: 100.0 mg/kg/injection, schedule: Q04DX003 (ip), vehicle: saline
  survivor count: 0 of 6
T/C endpoint: mean survival time, dose: 200.0 mg/kg/injection, schedule: Q04DX003 (ip), vehicle: saline
  survivor count: 0 of 6

## CCN(CC)CCCC(C)NC(C)CCCN(CC)CC (centres undefined)
T/C endpoint: mean survival time, dose: 100.0 mg/kg/injection, schedule: Q01DX009 (ip), vehicle: Klucel (hydroxypropylcellulose) (HPC)
  survivor count: 3 of 6
T/C endpoint: mean survival time, dose: 200.0 mg/kg/injection, schedule: Q01DX009 (ip), vehicle: Klucel (hydroxypropylcellulose) (HPC)
  survivor count: 0 of 6
T/C endpoint: mean survival time, dose: 400.0 mg/kg/injection, schedule: Q01DX009 (ip), vehicle: Klucel (hydroxypropylcellulose) (HPC)
  survivor count: 0 of 6

## O=C1C=CC(=O)N1c1ccc(O)cc1
T/C endpoint: mean survival time, dose: 10.0 mg/kg/injection, schedule: Q04DX003 (ip), vehicle: saline with Tween-80
  survivor count: 0 of 6
T/C endpoint: mean survival time, dose: 20.0 mg/kg/injection, schedule: Q04DX003 (ip), vehicle: saline with Tween-80
  survivor count: 0 of 6
[4]
  survivor count: 0 of 6
[5]
  survivor count: 0 of 6
[2]
  survivor count: 0 of 6

## CC(C)NC(=O)N(c1ccccc1)C(C)C
[1]
  survivor count: 4 of 6

## COC1CCC([NH-])(C[NH-])C(c2ccc3c(c2)OCO3)O1.[Cl][Pt+2][Cl] (centres undefined)
T/C endpoint: median survival time, dose: 280.0 mg/kg/injection, schedule: Q04DX003 (ip), vehicle: saline with Tween-80
  survivor count: 4 of 4

## Cc1ccc(NC(=O)Nc2ccccc2C(N)=O)cc1[N+](=O)[O-]
[6]
  survivor count: 3 of 3

## CCCCCCCCCCCCCCCCN(C)C
[4]
  survivor count: 0 of 6

## O=S(=O)(Oc1ccccc1)c1c(F)c(F)c(F)c(F)c1F
[5]
  survivor count: 1 of 6
[2]
  survivor count: 0 of 6

## CC(C)N(C(C)C)S(=O)(=O)c1ccccc1C(O)(c1ccccc1)c1ccccc1
[6]
  survivor count: 6 of 6
[1]
  survivor count: 6 of 6

## CSc1nc(=O)n(C2OC(CO)C(O)C2O)nc1SCc1ccccc1 (centres undefined)
T/C endpoint: mean survival time, dose: 100.0 mg/kg/injection, schedule: Q01DX005 (ip), vehicle: distilled water + Tween-80
  survivor count: 0 of 6
T/C endpoint: mean survival time, dose: 200.0 mg/kg/injection, schedule: Q01DX005 (ip), vehicle: distilled water + Tween-80
  survivor count: 0 of 6

## CN(C)c1ccc(C2(O)C3CCC2CC3)cc1 (centres undefined)
T/C endpoint: median survival time, dose: 200.0 mg/kg/injection, schedule: Q04DX002 (ip), vehicle: saline with Tween-80
  survivor count: 0 of 3

## CC(C)C(O)c1ccccc1 (centres undefined)
T/C endpoint: mean survival time, dose: 200.0 mg/kg/injection, schedule: Q01DX005 (ip), vehicle: saline with Tween-80
  survivor count: 2 of 3
[3]
  survivor count: 0 of 3

## O=C(COc1ccccc1)NC(=S)Nc1ccc(Cl)cc1Cl
T/C endpoint: mean survival time, dose: 100.0 mg/kg/injection, schedule: Q01DX009 (ip), vehicle: saline with Tween-80
  survivor count: 6 of 6
[6]
  survivor count: 1 of 6
[1]
  survivor count: 0 of 6

## COC1(c2ccccc2)c2ccccc2C(OC)(c2ccccc2)c2cc(Cl)ccc21 (centres undefined)
T/C endpoint: mean survival time, dose: 400.0 mg/kg/injection, schedule: Q01DX001 (ip), vehicle: Klucel (hydroxypropylcellulose) (HPC)
  survivor count: 3 of 3
